The campaign covered roughly 330,000 compounds. About 610 (0.18%) were called active. This list was built around the results that the source calls inconclusive (neither active nor inactive); the mix of calls is not that of the screen. Calls come from the whole dose curve. A potency beside an inconclusive call is a rough fit, not a confirmed value.
Test: qHTS of Yeast-based Assay for SARS-CoV PLP; note: nearly all actives have a fitted effect of over 55% in size
Conditions: S. cerevisiae expressing SARS-CoV PLpro; Potency: growth rescue; series mostly up to 32.9 µM
Potency is the fitted concentration of half-maximal effect.

Row | SMILES | Potency
1 | O=C(NCCc1ccccc1)c1ccncc1 | inconclusive: 20 µM [activator, single point]
2 | O=C(Cc1cnn(-c2ccccc2)c1)c1ccc(O)c(O)c1O | inconclusive: 12.6 µM [activator, single point]
3 | CC(C)(C)NC(=O)C(c1ccco1)N(Cc1ccc(F)cc1)C(=O)c1snc(C(N)=O)c1N (stereo not given) | inconclusive: 3.16 µM [activator, single point]
4 | COc1ccccc1NC(=O)CN(Cc1ccco1)C(=O)c1cc2ccccc2o1 | inactive
5 | CCC(NC(=S)NCc1ccc(F)cc1)c1ccc(C)cc1 (stereo not given) | inconclusive: 11.2 µM [activator, partial curve]
6 | CC(=O)c1cccc(NC(=O)NCc2ccc3c(c2)OCO3)c1 | inconclusive: 2.51 µM [activator, single point]
7 | Cc1ccc(C)c(NC(=O)CCOc2ccccc2)c1 | inactive
8 | Cc1ccc(Cl)cc1N1CCN(S(=O)(=O)c2c(C)[nH]c(C)c2C(=O)N2CCCC2)CC1 | inconclusive: 3.55 µM [activator, full curve]
9 | CCNC(=S)Nc1ccc(C)c(Cl)c1 | inconclusive: 11.2 µM [activator, single point]
10 | Cc1ccc(Cl)cc1N1CCN(C(=O)Cn2ncn3cccc3c2=O)CC1 | inconclusive: 20 µM [activator, single point]
11 | Clc1ccc(OCc2cn3cccnc3n2)c2ncccc12 | inconclusive: 22.4 µM [activator, single point]
12 | Nc1nnnn1/N=C/c1ccc(Br)cc1 | inactive
13 | Cc1nnc(SCC(=O)N2CC(=O)Nc3ccccc32)n1-c1ccccc1 | inconclusive: 1.78 µM [activator, partial curve]
14 | N#CC(C(=O)Nc1ccccc1)=C1Nc2ccccc2N1 | inactive
15 | C/C(=N\NC(=O)c1ccccc1)c1cc2cc([N+](=O)[O-])ccc2oc1=O | inconclusive: 14.1 µM [activator, partial curve]
16 | Cc1ccc(OS(=O)(=O)c2c(C)nn(C)c2Cl)c(C)c1 | inconclusive: 12.6 µM [activator, single point]
17 | C=CCn1c(SC2CCOC2=O)nc2sc(CC)cc2c1=O (stereo not given) | inconclusive: 3.98 µM [activator, single point]
18 | S=C(NCc1ccco1)Nc1ccc(Cl)cc1 | inconclusive: 15.8 µM [activator, single point]
19 | CCc1ccc2c(CN3CCc4cc(OC)c(OC)cc4C3)cc(=O)oc2c1 | inconclusive: 4.47 µM [activator, single point]
20 | Cc1c(NC(=O)COc2ncnc3c(Cl)cc(Cl)cc23)c(=O)n(-c2ccccc2)n1C | inconclusive: 3.98 µM [activator, single point]
21 | O=C(COc1cc2oc(=O)c3c(c2cc1Cl)CCC3)NCc1ccccn1 | inactive
22 | COc1ccccc1CNC(=O)c1c(N)n(CCCN2CCOCC2)c2nc3ccccc3nc12 | inconclusive: 2.82 µM [activator, partial curve]
23 | COc1cccc(-c2nc(CS(=O)(=O)CC(=O)N3CCOCC3)c(C)o2)c1 | inconclusive: 0.398 µM [activator, full curve, poor fit]
24 | COc1cc(SC)ccc1C(=O)Nc1ccc2c(c1)OCCO2 | inactive

Row | SMILES | Potency
25 | CC(=O)Nc1ccc(NC(=O)CS(=O)(=O)c2cn(CC(=O)N3CCCC3)c3ccccc23)cc1 | inconclusive: 3.98 µM [activator, single point]
26 | COCCn1cnc2c1c(=O)n(CC(=O)OCC(=O)NCC(F)(F)F)c(=O)n2Cc1ccccc1 | inconclusive: 10 µM [activator, single point]
27 | N#Cc1c(N)nc2c(c1-c1cccc(O)c1)CCCCCC2 | inconclusive: 4.47 µM [activator, single point]
28 | COc1ccc2[nH]c(O)c(N=O)c2c1 | inconclusive: 12.6 µM [activator, partial curve, poor fit]
29 | CC(NC(=O)CSc1nnnn1C1CC1)c1ccccc1Br (stereo not given) | inactive
30 | Cc1ccc(CNC(C)c2ccccc2)cc1 (stereo not given) | inactive
31 | COc1ccc(C(=O)C(CO)Oc2ccccc2OC)cc1OC (stereo not given) | inactive
32 | CCn1c(C)c(C)c2cc(C(=O)NCCCN3CCCCC3C)ccc21 (stereo not given) | inconclusive: 3.98 µM [activator, partial curve]
33 | CCOc1ccccc1NC(=O)c1ccccc1N(C)S(C)(=O)=O | inactive
34 | c1coc(CN=C2NC(=NCc3ccco3)c3ccccc32)c1 | inconclusive: 5.01 µM [activator, partial curve]
35 | Cc1ccc(S(=O)(=O)N2CCN(c3ccccc3)CC2)c(C)c1 | inactive
36 | CC1=CC2=NC(=O)/C(=C\c3ccc(OC(=O)c4ccco4)cc3)C(=N)N2O1 | inactive
37 | Cc1onc(C(=O)NCCc2ccccc2)c1[N+](=O)[O-] | inactive
38 | COC(=O)c1c(-c2ccco2)csc1NC(=O)C1CC=CCC1C(=O)O (stereo not given) | inactive
39 | CC(=O)NCCC(=O)Nc1nc(-c2ccc3ccccc3c2)cs1 | inconclusive: 20 µM [activator, single point]
40 | Cc1c(NC(=O)Nc2ccc(F)cc2F)c(=O)n(-c2ccccc2)n1C | inactive
41 | N#CC1=C(N)OC2=C(C(=O)CC(c3ccccc3)C2)C1c1cccnc1 (stereo not given) | inactive
42 | CCc1ccc(CNC(=O)CCCn2nc(C)n3ccnc3c2=O)cc1 | inconclusive: 14.1 µM [activator, single point]
43 | Cc1nn(C(C)C(=O)N2CCc3ccccc32)c(C)c1[N+](=O)[O-] (stereo not given) | inconclusive: 11.2 µM [activator, single point]
44 | COc1ccc(CNC(=O)COc2cc3c(c4oc(=O)cc(C)c24)CCC(C)(C)O3)cc1OC | inconclusive: 0.447 µM [activator, full curve]
45 | Cc1nc(-c2ccccc2)c(-c2ccccc2)[nH]1 | inconclusive: 1.41 µM [activator, full curve, poor fit]
46 | CCOC(=O)c1csc(NC(=O)C2=COCCO2)n1 | inconclusive: 2 µM [activator, single point]
47 | O=C(N/N=C/c1cn(CCOc2ccccc2)c2ccccc12)c1ccncc1 | inconclusive: 7.08 µM [activator, partial curve]
48 | Cc1c(NC(=S)NC(NC(=O)C(C)C)C(Cl)(Cl)Cl)c(=O)n(-c2ccccc2)n1C (stereo not given) | inconclusive: 11.2 µM [activator, single point]

Row | SMILES | Potency
49 | CC1CCCN(C(=S)Nc2ccc(Nc3ccccc3)cc2)C1 (stereo not given) | inactive
50 | Cc1[nH]c(C)c(S(=O)(=O)NCc2ccc(F)cc2)c1C(=O)N1CCCCC1 | inconclusive: 3.55 µM [activator, single point]
51 | O=C(CNC(=O)CNC(=O)c1ccc(Cl)cc1Cl)NCc1cccc(Cl)c1 | inconclusive: 0.891 µM [activator, full curve, poor fit]
52 | CCOC(=O)CN(C)C(=O)CCc1nnc(-c2ccc(-c3ccccc3)cc2)o1 | inactive
53 | Cc1ccc(S(=O)(=O)NCC2CCC(C(=O)NCc3ccc4c(c3)OCO4)CC2)cc1 (stereo not given) | inconclusive: 20 µM [activator, single point]
54 | CCCOc1cccc(C(=O)N/N=C/c2coc3ccccc3c2=O)c1 | inconclusive: 22.4 µM [activator, single point]
55 | Cc1cc(C)cc(NC(=O)CSc2nccn2Cc2ccco2)c1 | inconclusive: 3.16 µM [activator, single point]
56 | CCn1c(CCC(=O)Nc2nc3c(s2)CCCC3)nc2cc(S(=O)(=O)N(C)C)ccc21 | inconclusive: 17.8 µM [activator, single point]
57 | COCCOC(=O)C1=C(C)NC(SCC(=O)NC(C)(C)C)=C(C#N)C1c1ccco1 (stereo not given) | inconclusive: 22.4 µM [activator, single point]
58 | Cc1occc1C(=O)N/N=C/c1ccc(Cl)c([N+](=O)[O-])c1 | inconclusive: 4.47 µM [activator, single point]
59 | CC(=O)N/C(=C\c1ccccc1)C(=O)OCC(=O)N(C)C1CCS(=O)(=O)C1 (stereo not given) | inconclusive: 3.16 µM [activator, partial curve]
60 | COc1ccc(Cc2nc(-c3ccccn3)no2)cc1 | inconclusive: 4.47 µM [activator, single point]
61 | Clc1ccc(OCCCNCc2ccccc2)c2ccccc12 | inconclusive: 20 µM [activator, single point]
62 | CCOC(=O)c1cc(NC(=O)N(CC)C2CCCCC2)c(C)nc1C | active: 14.1 µM
63 | O=C(NCc1cc(C(F)(F)F)cc(C(F)(F)F)c1)C1CC(c2c(Cl)cccc2Cl)=NO1 (stereo not given) | inconclusive: 3.98 µM [activator, single point]
64 | CCCCCN(C(=O)NC(=O)Nc1ccc(C)cc1)S(=O)(=O)c1ccccc1 | active: 3.16 µM
65 | CC1Cc2ccccc2N1C(=O)COC(=O)c1ccc([N+](=O)[O-])o1 (stereo not given) | inactive
66 | O=[N+]([O-])c1ccc(/C=N/N2CCN(c3ccncc3S(=O)(=O)N3CCCCC3)CC2)cc1 | active: 3.16 µM
67 | CCc1ccc2[nH]c(=O)c(C3C(C#N)=C(N)Oc4c3ccc3cccnc43)cc2c1 (stereo not given) | inconclusive: 12.6 µM [activator, single point]
68 | O=[N+]([O-])c1ccc(NC(=S)N2CCN(c3ccc(F)cc3)CC2)cc1 | inconclusive: 11.2 µM [activator, partial curve]
69 | COC(=O)c1ccccc1NC(=O)/C=C/C(=O)O | inconclusive: 20 µM [activator, single point]
70 | CCCCn1c(N)c(N(CCOC)C(=O)c2ccc(N3C(=O)CCC3=O)cc2)c(=O)[nH]c1=O | inconclusive: 20 µM [activator, single point]

Pulled by structure from the list above:
Row | SMILES | Potency
50 | Cc1[nH]c(C)c(S(=O)(=O)NCc2ccc(F)cc2)c1C(=O)N1CCCCC1 | inconclusive: 3.55 µM [activator, single point]
70 | CCCCn1c(N)c(N(CCOC)C(=O)c2ccc(N3C(=O)CCC3=O)cc2)c(=O)[nH]c1=O | inconclusive: 20 µM [activator, single point]
63 | O=C(NCc1cc(C(F)(F)F)cc(C(F)(F)F)c1)C1CC(c2c(Cl)cccc2Cl)=NO1 (stereo not given) | inconclusive: 3.98 µM [activator, single point]
